Results taken from patent publication US20250345426A1, “METHODS FOR MAKING AND USING THERAPEUTIC CELLS” (THE REGENTS OF THE UNIVERSITY OF CALIFORNIA, priority 2022, published 2025).
For at least one compound, name, drawing or mass did not settle the structure.

Experiments:
Raji target cells = experiment: 24-hr lysis assay of inhibitor-treated rituximab CD20 CAR-T cells against Raji; format: cell-based; details: three E:T ratios, vs vehicle-treated
Source text: (§1) FIG. 1A-G. Pharmacological inhibition of PI3K/AKT pathway modulates antigen-independent CAR-T cell activation. (A) Table of pharmacological inhibitors used during ex vivo expansion of rituximab CAR-T cells (left). Simplified schematic of the PI3K/AKT signaling axis where black arrows represent activation (right). (B) Activation marker expression by CAR^+ T cells in the absence of antigen stimulation after 5 days of pharmacological modulation. Data bars indicate the means of technical triplicates±1 S.D. The bars in FIG. 1B represent data from, untreated, vehicle, CAL-101, AZD5363, Rapamycin, MYCi975, and Betulin, respectively, from left to right. (C) TNF-α production CAR^+ T cells in the absence of antigen stimulation as quantified by intracellular flow cytometry. Data bars indicate the means of technical triplicates±1 S.D. The bars in FIG. 1B and FIG. 1C represent data from, untreated, vehicle, CAL-101, AZD5363, Rapamycin, MYCi975, and Betulin, respectively, from left to right. […] Statistical significance in panels B, C, and D was determined by two-tailed Student's t test with Sidak correction for multiple comparisons. * p<0.05, ** p<0.01, *** p<0.001, n.s. not statistically significant.
Cytotoxicity assay with Raji cells. […] Remaining target cells were quantified by MACSQuant VYB flow cytometer 24-hr post co-incubation.

rituximab CAR-T cells [1] = experiment: Antigen-independent activation and exhaustion marker expression by flow cytometry, rituximab CAR-T cells; format: cell-based, human
Source text: FIG. 1A-G. Pharmacological inhibition of PI3K/AKT pathway modulates antigen-independent CAR-T cell activation. (A) Table of pharmacological inhibitors used during ex vivo expansion of rituximab CAR-T cells (left). Simplified schematic of the PI3K/AKT signaling axis where black arrows represent activation (right). (B) Activation marker expression by CAR^+ T cells in the absence of antigen stimulation after 5 days of pharmacological modulation. Data bars indicate the means of technical triplicates±1 S.D. The bars in FIG. 1B represent data from, untreated, vehicle, CAL-101, AZD5363, Rapamycin, MYCi975, and Betulin, respectively, from left to right. (C) TNF-α production CAR^+ T cells in the absence of antigen stimulation as quantified by intracellular flow cytometry. Data bars indicate the means of technical triplicates±1 S.D. The bars in FIG. 1B and FIG. 1C represent data from, untreated, vehicle, CAL-101, AZD5363, Rapamycin, MYCi975, and Betulin, respectively, from left to right. (D) Proliferation of CAR^+ T cells stained with CellTrace Violet (CTV) dye was assayed after a 4-day culture in the absence of target cells or exogenous cytokines. Data shown in the histogram correspond to one of technical triplicates shown in the bar graph. The bars FIG. 1D represent data from, EGFRt, untreated, vehicle, CAL-101, AZD5363, Rapamycin, MYCi975, and Betulin, respectively, from left to right. (E) % distribution of T-cell subtypes in CAR^+ T cells after 5 days of pharmacological modulation. Data bars indicate the means of technical triplicates±1 S.D. (F) Rituximab CAR-T cell fold expansion after 6 days of inhibitor culture was tracked. […] Statistical significance in panels B, C, and D was determined by two-tailed Student's t test with Sidak correction for multiple comparisons. * p<0.05, ** p<0.01, *** p<0.001, n.s. not statistically significant. […]
Antibody staining for flow-cytometry analysis. EGFRt expression was measured with biotinylated cetuximab (Eli Lilly; biotinylated in-house), followed by PE-conjugated streptavidin (Jackson ImmunoResearch #016-110-084). CAR expression was quantified by surface epitope staining using anti-Fc (Alexa Fluor 488, Jackson ImmunoResearch #709-546-098). Antigen-independent activation-marker expression of CAR-T cells was evaluated by antibody staining for CD137 (PE/Cy7, clone 4B4-1, BioLegend #309818), and PD-1 (FITC, clone EH12.2H7, BioLegend #329904) on Days 18 (i.e., 18 days after Dynabead addition and 11 days after Dynabead removal) and after 5-6 days of inhibitor culture (FIG. 1, FIG. 3). T-cell subtype of CAR-T cells was evaluated by antibody staining for CD45RO (VioBlue®, clone REA611, Miltenyi #130-119-620) and CD62L (APC, clone DREG56, Invitrogen #17-0629-42) after 5-6 days of inhibitor culture (FIG. 1, FIG. 3). […]

rituximab CAR-T cells [2] = experiment: Antigen-independent CAR-T cell metabolic activity, rituximab CAR-T cells (data not shown); format: cell-based, human
Source text: Cell line generation and maintenance. HEK 293T and Raji cells were obtained from ATCC. Leu16 and rituximab scFv-expressing HEK293T cell lines were generated by retroviral transduction of HEK293T cells to express each scFv fused with EGFP via a 2A peptide, and EGFP+ cells were sorted by fluorescence-activated cell sorting (FACS) on a FACSAria (II) cell sorter (BD Bioscience) at the UCLA Flow Cytometry Core Facility. CD20+K562 cells were generated by transduction of K562 cells with a retroviral construct encoding full-length CD20. K562 cells with varying CD20 expression levels were generated by FACS sorting of CD20+K562 into bins of different antigen densities. CHLA-255-Luc-EGFP cells were generated by retroviral transduction of CHLA-255-Luc to express EGFP, and EGFP+ cells were enriched by FACS. HEK 293T cells were cultured in DMEM (HyClone) supplemented with 10% heat-inactivated FBS (HI-FBS; ThermoFisher). CHLA-255-Luc-EGFP cells were cultured in IMDM (ThermoFisher) with 10% HI-FBS. Primary human T cells, Raji, and K562 cells were cultured in RPMI-1640 (Lonza) with 10% HI-FBS. For CAR-T cells used in metabolomics studies, T cells were cultured in RPMI-1640 containing 2 g/L of 1,2-13C-glucose with 10% heat-inactivated dialyzed FBS (HI-dFBS).

rituximab CAR-T cells [3] = experiment: T-cell subtype distribution (CD45RO/CD62L staining), rituximab CAR-T cells; format: cell-based, human; details: 5 days of pharmacological modulation, vs vehicle
Source text: as §1, with “cytometry.” for “cytometry. Data bars indicate the means of technical triplicates±1 S.D. The bars in FIG. 1B and FIG. 1C represent data from, untreated, vehicle, CAL-101, AZD5363, Rapamycin, MYCi975, and Betulin, respectively, from left to right.”, “significant. […]” for “significant.”
Antibody staining for flow-cytometry analysis. EGFRt expression was measured with biotinylated cetuximab (Eli Lilly; biotinylated in-house), followed by PE-conjugated streptavidin (Jackson ImmunoResearch #016-110-084). CAR expression was quantified by surface epitope staining using anti-Fc (Alexa Fluor 488, Jackson ImmunoResearch #709-546-098). […]

Leu16 CAR-T cells [4] = experiment: CellTrace Violet proliferation assay without target cells or exogenous cytokines, Leu16 CAR-T cells; format: cell-based, human; details: 4-day culture, CTV dye
Leu16 CAR-T cells [5] = experiment: Ex vivo fold expansion during inhibitor culture, Leu16 CAR-T cells; format: cell-based, human; details: 6 days of inhibitor culture, vs vehicle
[6] = no antigen stimulation, rapamycin 100 nM

CO[C@H]1C[C@@H]2CC[C@@H](C)[C@@](O)(O2)C(=O)C(=O)N2CCCC[C@H]2C(=O)O[C@H]([C@H](C)C[C@@H]2CC[C@@H](O)[C@H](OC)C2)CC(=O)[C@H](C)/C=C(\C)[C@@H](O)[C@@H](OC)C(=O)[C@H](C)C[C@H](C)/C=C/C=C/C=C/1C [rapamycin, Rapamycin]
lysis of Raji tumor cells (Raji target cells): clustered together
tonic signaling (rituximab CAR-T cells [1]): decreased
CD69 expression (rituximab CAR-T cells [1]; [6]): insignificant impact
CD137 and PD-1 expression (rituximab CAR-T cells [1]; [6]): reduced
antigen-independent CAR-T cell metabolic activity (rituximab CAR-T cells [2]): substantial decreases
fraction of naïve and stem-cell memory T (Tn/scm) cells / T-cell differentiation (rituximab CAR-T cells [3]): enrichment of Tn/scm cells
antigen-independent proliferation (Leu16 CAR-T cells [4]): significantly ablated
ex vivo expansion (Leu16 CAR-T cells [5]): unable to expand as effectively
